Experimental data reported in article PMC3694151.
These are yes or no findings as the source states them, for the method shown. Binding seen in cells or lysates may run through a third protein. Some entries that bind do so weakly or less than the wild type.

Amino acid sequences for entries named in this document (tags omitted). Residues count along the entry.
UniProt P69566: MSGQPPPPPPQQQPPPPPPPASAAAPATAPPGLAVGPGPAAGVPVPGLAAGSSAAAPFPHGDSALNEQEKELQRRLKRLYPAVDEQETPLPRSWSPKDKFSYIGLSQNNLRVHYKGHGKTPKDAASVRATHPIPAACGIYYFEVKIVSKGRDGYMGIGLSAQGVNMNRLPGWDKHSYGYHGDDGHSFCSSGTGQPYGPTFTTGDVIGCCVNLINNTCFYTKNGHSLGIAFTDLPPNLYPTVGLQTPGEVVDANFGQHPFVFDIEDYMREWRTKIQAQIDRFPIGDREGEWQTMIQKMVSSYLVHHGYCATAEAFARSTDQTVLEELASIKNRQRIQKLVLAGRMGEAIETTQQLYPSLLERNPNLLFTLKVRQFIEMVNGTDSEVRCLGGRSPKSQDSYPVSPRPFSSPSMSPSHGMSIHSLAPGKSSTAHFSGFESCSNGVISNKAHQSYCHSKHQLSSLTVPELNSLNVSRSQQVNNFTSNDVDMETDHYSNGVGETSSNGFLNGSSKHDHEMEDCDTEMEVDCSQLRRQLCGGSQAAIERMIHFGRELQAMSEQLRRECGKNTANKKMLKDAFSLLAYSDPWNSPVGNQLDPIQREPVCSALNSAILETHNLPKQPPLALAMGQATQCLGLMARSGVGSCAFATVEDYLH
UniProt P11627, residues 20-1260: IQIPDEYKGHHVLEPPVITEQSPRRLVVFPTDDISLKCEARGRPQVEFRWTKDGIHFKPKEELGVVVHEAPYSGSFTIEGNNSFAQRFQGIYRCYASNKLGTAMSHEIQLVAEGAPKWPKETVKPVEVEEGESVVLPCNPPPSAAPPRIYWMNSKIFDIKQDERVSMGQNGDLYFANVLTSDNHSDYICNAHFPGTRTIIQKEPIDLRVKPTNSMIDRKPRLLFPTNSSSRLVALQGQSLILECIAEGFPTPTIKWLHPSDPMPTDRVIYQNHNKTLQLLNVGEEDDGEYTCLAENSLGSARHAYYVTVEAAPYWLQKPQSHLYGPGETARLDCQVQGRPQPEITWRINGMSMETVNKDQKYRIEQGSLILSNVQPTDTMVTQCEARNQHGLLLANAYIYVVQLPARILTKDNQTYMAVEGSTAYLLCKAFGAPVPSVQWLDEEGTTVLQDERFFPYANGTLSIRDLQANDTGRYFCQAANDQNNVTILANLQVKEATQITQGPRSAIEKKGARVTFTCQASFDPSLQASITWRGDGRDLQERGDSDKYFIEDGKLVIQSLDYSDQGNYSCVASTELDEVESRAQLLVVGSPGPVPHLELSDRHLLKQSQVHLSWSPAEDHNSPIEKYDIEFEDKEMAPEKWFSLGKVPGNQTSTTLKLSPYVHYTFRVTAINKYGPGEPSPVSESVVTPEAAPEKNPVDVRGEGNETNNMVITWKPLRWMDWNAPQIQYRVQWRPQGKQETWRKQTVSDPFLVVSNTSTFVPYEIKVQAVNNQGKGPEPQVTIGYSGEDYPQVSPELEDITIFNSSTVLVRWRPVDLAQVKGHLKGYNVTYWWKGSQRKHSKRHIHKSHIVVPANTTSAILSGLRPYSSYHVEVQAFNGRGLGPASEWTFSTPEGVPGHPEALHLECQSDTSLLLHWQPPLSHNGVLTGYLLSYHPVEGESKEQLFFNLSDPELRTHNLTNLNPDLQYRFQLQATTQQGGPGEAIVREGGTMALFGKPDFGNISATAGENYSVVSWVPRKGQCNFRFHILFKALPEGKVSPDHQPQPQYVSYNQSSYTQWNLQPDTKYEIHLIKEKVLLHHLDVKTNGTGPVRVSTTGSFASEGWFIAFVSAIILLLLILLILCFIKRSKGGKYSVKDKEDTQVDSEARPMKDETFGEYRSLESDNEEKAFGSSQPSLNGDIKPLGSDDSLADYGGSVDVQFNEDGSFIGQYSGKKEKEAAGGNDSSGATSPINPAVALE

Experiments:
[1] = target: Ran-binding protein 9 (RanBP9) (UniProt P69566); assay: co-IP; reciprocal co-immunoprecipitation of endogenous proteins: precipitated with RanBP9 antibody and L1CAM detected, and precipitated with L1CAM antibodies and RanBP9 detected; lysate and buffer not stated
[2] = target: neural cell adhesion receptor L1CAM (UniProt P11627); assay: as above

binding [1] | binding [2] | Substance
binds | – | neural cell adhesion receptor L1CAM (from UniProt P11627 20-1260)
– | binds | Ran-binding protein 9 (RanBP9) (from UniProt P69566 1-653)
